Patent US20100137641
Construct, isoform or probe ends are uncertain for at least one entry. Results from cells or extracts need not show a direct contact.

System: Orf2 (acyl homoserine lactone receptor-type transcription factor, LuxR-type) (Gluconacetobacter intermedius NCI1051)
Experiment: EMSA
Details: in the presence of acyl homoserine lactone; binding described as suggested; protein in a lysate after overexpression

CCCATTCTTACCCCTCGTGAAAAAGAATGCCTGACATGGACAGCCAAGGGCAAAAGCTCATGGGAAACCGGGATGATTGTTGGTGTCAGTGAGCGCACAGTTAACTTTCACATCAACAATGCCTTGCTGAAGCTGAAATGTACGAATCGTATCATGGGTGTGGTGCGGGCTATCTGCGCAGGGCTGATTGAACTGTAAAACCTGTCAGGTCTGACAGGTAACCTGACCGTCGATTTTCATGAATGATCCTCTCATCCAACAGGAAGAGAGTAGATCCATGATCGAAGTCGTAACCGTTGAAAACGCCCACTGGGCCGGAACTGCTCTCGCAGAGCAGTTCAAGTTCCGTTACCGCCATTTTGTGGCTAATGAGCAGTGGGAAGTCCCCTTCTACAAGGGCA (double strand) [orf1 upstream probe (nt 1349-1749)]
binding result: binds
